Test results reported in US20240245789A1, “POLYMER CONJUGATES OF DRUGS TARGETING 5-HT AND OTHER RECEPTORS IN THE CENTRAL NERVOUS SYSTEM (CNS) THAT ALSO TARGETS RECEPTORS OUTSIDE OF THE CNS” (Arbormentis LLC, priority 2021, published 2024).
For at least one compound, name, drawing or mass did not settle the structure.

System: adipose differentiation-related protein 2 (PLIN-2)
Assay: protein expression of PLIN-2 in the liver of NAFLD mice by immunohistochemistry

CN(C)CCc1c[nH]c2cccc(OP(=O)(O)O)c12 [psilocybin]
protein expression of PLIN-2 in the liver: decreased the expression of this transporter
